Assay results as given in patent publication US20080161239A1.
These are yes or no findings as the source states them, for the method shown. For part of these data: Binding seen in cells or lysates may run through a third protein. Some binding calls cover weakened binding; strength is not graded here. For part of these data: Where a sequence is shown, tags or fusion partners need not be part of it.

Chains of the proteins cited; added tags and fusions are not shown. Lines headed by an entry give the natural chain unless they say otherwise; changes in a name come on top.
UniProt P63208: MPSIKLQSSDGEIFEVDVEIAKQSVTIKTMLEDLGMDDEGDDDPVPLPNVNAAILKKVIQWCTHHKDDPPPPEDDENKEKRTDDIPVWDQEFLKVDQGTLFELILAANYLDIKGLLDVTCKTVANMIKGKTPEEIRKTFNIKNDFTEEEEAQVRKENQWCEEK
UniProt P05067: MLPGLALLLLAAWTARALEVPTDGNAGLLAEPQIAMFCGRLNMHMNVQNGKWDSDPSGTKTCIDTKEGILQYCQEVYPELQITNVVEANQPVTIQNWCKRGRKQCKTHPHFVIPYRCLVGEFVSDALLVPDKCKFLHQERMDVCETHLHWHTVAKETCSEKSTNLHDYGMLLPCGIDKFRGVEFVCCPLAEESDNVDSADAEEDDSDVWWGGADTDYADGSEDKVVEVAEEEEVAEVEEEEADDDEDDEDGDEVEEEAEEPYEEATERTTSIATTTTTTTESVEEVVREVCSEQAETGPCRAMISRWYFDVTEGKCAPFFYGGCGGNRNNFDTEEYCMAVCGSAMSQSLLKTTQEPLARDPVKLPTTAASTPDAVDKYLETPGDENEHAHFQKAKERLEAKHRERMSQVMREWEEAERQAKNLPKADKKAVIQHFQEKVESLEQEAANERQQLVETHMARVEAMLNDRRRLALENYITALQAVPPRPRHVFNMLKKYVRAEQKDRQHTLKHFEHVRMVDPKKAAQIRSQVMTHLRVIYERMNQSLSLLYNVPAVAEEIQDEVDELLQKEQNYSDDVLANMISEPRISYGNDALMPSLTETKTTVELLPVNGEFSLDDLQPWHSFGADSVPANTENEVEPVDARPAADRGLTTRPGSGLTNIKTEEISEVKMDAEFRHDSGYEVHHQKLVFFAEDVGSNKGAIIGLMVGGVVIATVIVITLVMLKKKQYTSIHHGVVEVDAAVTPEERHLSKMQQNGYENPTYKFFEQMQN

Legend:
[1] = molecular target: human type Skp1 (hSkp1), S-phase kinase-associated protein 1A (human) (UniProt P63208); assay: co-immunoprecipitation with anti-Flag agarose from COS7 lysate, Western blot
[2] = molecular target: T1, human type YPEL1 (hYPEL1) having the Myc tag introduced to the N terminus (human) (UniProt O60688); assay: as above
T1 sequence (looked up): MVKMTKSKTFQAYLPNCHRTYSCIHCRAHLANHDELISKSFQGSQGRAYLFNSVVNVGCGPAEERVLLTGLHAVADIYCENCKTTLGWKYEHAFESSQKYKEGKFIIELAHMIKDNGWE

[3] = molecular target: CTFα protein (C-terminal fragment α of APP, from cleavage by α-secretase) (human) (UniProt P05067); assay: co-immunoprecipitation with anti-Flag agarose from HEK293A lysate, Western blot
[4] = molecular target: CTFβ protein (C-terminal fragment β of APP, from cleavage by β-secretase) (human) (UniProt P05067); assay: as above
[5] = molecular target: amyloid precursor protein consisting of 695 amino acids (APP695) (human) (UniProt P05067); assay: as above
[6] = molecular target: T1, human type YPEL1 (hYPEL1) having the Myc tag introduced to the N terminus (human); assay: co-immunoprecipitation with anti-Flag agarose from COS7 lysate, Western blot with anti-Myc antibody
[7] = molecular target: human type Skp1 (hSkp1), S-phase kinase-associated protein 1A (human) (UniProt P63208); assay: co-immunoprecipitation with anti-Flag agarose from COS7 lysate, Western blot with anti-Skp1 antibody
[8] = molecular target: CTFα protein (C-terminal fragment α of APP, from cleavage by α-secretase) (human) (UniProt P05067); assay: co-immunoprecipitation with anti-Flag agarose from HEK293A lysate, Western blot with anti-APP antibodies
[9] = molecular target: CTFβ protein (C-terminal fragment β of APP, from cleavage by β-secretase) (human) (UniProt P05067); assay: as above
[10] = molecular target: amyloid precursor protein consisting of 695 amino acids (APP695) (human) (UniProt P05067); assay: as above
[11] = molecular target: S-phase kinase-associated protein 1A (Skp1), positive clone of the Pretransformed Matchmaker human brain cDNA library (human) (UniProt P63208); assay: yeast two-hybrid screen of a human brain cDNA library, growth selection and X-α-gal activity
[12] = molecular target: T2, yippee-like 1 (YPEL1), positive clone of the Pretransformed Matchmaker human brain cDNA library (human) (UniProt O60688); assay: as above
T2 sequence (looked up): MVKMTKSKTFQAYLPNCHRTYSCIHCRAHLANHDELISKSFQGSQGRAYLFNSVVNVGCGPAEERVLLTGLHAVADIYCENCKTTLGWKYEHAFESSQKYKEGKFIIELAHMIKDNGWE

Measured: binding

B1: hFBL2 incorporating a Flag tag (human F-box and leucine rich repeat protein 2 with a Flag tag at the N terminus) (protein, not shown: small tags and cut ends)
chain: MVFSNNDEGLINKKLPKELLLRIFSFLDIVTLCRCAQISKAWNILALDGSNWQRIDLFNFQTDVEGRVVENISKRCGGFLRKLSLRGCIGVGDSSLKTFAQNCRNIEHLNLNGCTKITDSTCYSLSRFCSKLKHLDLTSCVSITNSSLKGISEGCRNLEYLNLSWCDQITKDGIEALVRGCRGLKALLLRGCTQLEDEALKHIQNYCHELVSLNLQSCSRITDEGVVQICRGCHRLQALCLSGCSNLTDASLTALGLNCPRLQILEAARCSHLTDAGFTLLARNCHELEKMDLEECILITDSTLIQLSIHCPKLQALSLSHCELITDDGILHLSNSTCGHERLRVLELDNCLLITDVALEHLENCRGLERLELYDCQQVTRAGIKRMRAQLPHVKVHAYFAPVTPPTAVAGSGQRLCRCCVIL
binds: [1] | [2] | [3] | [4] | [5] | [6] | [7] | [8] | [9] | [10]

B2: hFBL2 expressed from the pGBKT7 vector for the Yeast Two-Hybrid system (protein, not shown: large carriers)
chain: MVFSNNDEGLINKKLPKELLLRIFSFLDIVTLCRCAQISKAWNILALDGSNWQRIDLFNFQTDVEGRVVENISKRCGGFLRKLSLRGCIGVGDSSLKTFAQNCRNIEHLNLNGCTKITDSTCYSLSRFCSKLKHLDLTSCVSITNSSLKGISEGCRNLEYLNLSWCDQITKDGIEALVRGCRGLKALLLRGCTQLEDEALKHIQNYCHELVSLNLQSCSRITDEGVVQICRGCHRLQALCLSGCSNLTDASLTALGLNCPRLQILEAARCSHLTDAGFTLLARNCHELEKMDLEECILITDSTLIQLSIHCPKLQALSLSHCELITDDGILHLSNSTCGHERLRVLELDNCLLITDVALEHLENCRGLERLELYDCQQVTRAGIKRMRAQLPHVKVHAYFAPVTPPTAVAGSGQRLCRCCVIL
binds: [11] | [12]
